Laboratory results reported in the supplement of paper PMC6411743.
± gives the standard deviation of the averaged measurements. The list shows a part of the results, in another mix than the full data.

Protein sequences, listed by entry. Tags and fused reporters are not part of them. Lines headed by an entry give the natural chain unless they say otherwise; changes in a name come on top.
UniProt Q99613, whole entry, looked up: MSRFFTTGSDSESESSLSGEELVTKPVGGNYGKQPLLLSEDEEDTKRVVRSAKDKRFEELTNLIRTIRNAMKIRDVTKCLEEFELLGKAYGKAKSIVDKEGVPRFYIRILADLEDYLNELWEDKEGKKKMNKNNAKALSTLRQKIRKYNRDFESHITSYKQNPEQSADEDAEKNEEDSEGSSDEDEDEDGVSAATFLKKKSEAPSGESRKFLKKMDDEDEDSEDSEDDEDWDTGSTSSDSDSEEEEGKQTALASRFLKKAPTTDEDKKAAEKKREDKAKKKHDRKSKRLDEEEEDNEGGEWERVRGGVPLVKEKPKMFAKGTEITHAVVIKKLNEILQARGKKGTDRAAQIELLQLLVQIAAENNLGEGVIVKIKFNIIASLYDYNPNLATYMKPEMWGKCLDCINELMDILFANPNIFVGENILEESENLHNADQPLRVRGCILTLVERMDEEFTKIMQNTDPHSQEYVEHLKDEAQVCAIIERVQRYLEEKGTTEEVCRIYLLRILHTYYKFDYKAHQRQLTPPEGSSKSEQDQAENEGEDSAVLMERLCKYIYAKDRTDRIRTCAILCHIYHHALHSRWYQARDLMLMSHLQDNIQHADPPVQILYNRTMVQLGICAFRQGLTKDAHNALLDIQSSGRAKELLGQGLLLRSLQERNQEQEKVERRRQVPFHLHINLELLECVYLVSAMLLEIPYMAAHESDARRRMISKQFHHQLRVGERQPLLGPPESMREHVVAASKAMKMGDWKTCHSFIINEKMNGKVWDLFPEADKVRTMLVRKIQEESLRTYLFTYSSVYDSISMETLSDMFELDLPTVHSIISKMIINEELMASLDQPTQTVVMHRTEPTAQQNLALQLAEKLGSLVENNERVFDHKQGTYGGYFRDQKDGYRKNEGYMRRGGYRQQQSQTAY
UniProt C9JLW8: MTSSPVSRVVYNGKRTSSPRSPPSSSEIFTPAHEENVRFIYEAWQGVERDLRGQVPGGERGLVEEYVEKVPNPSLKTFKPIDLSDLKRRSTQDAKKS
UniProt O14727: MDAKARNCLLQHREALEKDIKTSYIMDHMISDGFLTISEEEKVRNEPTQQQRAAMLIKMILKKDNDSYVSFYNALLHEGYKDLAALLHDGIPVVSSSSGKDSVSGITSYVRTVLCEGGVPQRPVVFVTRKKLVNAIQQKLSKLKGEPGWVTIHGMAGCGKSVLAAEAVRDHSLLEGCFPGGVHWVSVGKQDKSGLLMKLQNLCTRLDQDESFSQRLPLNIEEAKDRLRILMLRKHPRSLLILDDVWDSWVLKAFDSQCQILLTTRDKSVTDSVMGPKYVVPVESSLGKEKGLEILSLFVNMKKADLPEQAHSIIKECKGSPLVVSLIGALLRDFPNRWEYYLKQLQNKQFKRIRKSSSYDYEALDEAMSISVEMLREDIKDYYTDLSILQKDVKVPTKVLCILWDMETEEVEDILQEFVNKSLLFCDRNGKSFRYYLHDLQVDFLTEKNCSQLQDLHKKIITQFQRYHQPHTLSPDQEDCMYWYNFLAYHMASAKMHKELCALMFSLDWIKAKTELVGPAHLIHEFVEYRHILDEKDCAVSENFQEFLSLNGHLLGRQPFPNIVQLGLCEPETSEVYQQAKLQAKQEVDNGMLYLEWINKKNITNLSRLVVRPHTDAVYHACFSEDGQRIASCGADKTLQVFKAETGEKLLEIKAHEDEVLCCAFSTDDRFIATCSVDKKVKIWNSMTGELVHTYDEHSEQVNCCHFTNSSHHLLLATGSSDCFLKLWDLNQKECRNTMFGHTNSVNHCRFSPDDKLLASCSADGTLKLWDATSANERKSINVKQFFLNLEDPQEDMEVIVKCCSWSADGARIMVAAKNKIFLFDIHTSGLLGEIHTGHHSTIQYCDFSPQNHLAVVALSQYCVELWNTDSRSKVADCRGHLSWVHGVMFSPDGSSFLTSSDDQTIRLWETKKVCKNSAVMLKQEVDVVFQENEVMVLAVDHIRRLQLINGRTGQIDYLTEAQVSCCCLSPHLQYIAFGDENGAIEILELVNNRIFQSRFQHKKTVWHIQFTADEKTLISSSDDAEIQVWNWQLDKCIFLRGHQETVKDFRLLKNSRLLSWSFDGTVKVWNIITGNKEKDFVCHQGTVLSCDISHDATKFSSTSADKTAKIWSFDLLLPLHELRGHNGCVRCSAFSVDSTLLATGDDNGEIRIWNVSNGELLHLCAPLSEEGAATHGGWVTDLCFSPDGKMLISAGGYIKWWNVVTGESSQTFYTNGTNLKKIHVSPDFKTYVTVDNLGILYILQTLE
UniProt Q53GS9: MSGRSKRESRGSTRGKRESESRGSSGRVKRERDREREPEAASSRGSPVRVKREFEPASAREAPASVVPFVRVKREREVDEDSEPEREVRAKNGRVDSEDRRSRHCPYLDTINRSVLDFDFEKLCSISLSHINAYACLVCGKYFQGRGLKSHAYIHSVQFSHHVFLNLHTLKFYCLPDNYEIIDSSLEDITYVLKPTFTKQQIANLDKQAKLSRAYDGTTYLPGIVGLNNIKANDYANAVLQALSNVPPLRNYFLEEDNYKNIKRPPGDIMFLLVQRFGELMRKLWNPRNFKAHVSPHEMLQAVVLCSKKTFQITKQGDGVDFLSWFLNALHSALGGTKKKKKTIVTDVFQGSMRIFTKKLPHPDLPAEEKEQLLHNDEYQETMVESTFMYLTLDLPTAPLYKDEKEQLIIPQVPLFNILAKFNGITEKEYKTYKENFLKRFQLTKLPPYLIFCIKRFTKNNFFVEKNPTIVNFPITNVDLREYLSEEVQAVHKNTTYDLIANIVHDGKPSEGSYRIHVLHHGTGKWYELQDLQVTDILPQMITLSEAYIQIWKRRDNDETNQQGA
UniProt P34913, whole entry: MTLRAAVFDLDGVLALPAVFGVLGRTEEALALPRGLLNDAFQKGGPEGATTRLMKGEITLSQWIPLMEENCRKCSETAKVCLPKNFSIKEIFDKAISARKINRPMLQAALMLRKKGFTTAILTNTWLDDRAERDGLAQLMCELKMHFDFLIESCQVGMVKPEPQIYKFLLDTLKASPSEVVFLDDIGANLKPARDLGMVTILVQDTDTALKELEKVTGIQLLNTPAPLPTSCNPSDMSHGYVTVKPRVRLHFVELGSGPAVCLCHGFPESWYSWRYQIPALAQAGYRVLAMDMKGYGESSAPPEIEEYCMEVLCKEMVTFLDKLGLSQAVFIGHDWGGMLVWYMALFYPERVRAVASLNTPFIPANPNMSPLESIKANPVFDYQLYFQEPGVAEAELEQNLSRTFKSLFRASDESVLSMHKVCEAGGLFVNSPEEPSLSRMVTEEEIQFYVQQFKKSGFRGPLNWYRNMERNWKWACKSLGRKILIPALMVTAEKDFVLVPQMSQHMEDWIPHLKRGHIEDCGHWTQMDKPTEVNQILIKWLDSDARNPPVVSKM
UniProt Q9Y6X4: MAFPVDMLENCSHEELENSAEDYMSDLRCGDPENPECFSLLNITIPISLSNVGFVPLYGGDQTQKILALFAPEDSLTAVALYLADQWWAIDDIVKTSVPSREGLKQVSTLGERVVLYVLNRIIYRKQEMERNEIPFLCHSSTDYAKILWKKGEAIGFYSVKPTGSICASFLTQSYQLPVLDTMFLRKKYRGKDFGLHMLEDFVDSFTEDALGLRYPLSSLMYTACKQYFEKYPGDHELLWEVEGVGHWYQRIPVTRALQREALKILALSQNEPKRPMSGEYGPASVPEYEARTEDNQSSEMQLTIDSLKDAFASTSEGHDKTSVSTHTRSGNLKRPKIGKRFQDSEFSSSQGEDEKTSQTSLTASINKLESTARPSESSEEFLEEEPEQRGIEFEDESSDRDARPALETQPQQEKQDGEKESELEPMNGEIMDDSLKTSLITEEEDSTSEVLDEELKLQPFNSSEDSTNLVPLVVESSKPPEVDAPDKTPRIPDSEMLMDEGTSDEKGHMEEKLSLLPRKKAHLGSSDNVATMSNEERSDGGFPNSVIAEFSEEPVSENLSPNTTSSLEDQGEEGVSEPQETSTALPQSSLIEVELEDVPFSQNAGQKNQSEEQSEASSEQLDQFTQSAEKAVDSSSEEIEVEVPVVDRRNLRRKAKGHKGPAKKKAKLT
UniProt A4D1P6: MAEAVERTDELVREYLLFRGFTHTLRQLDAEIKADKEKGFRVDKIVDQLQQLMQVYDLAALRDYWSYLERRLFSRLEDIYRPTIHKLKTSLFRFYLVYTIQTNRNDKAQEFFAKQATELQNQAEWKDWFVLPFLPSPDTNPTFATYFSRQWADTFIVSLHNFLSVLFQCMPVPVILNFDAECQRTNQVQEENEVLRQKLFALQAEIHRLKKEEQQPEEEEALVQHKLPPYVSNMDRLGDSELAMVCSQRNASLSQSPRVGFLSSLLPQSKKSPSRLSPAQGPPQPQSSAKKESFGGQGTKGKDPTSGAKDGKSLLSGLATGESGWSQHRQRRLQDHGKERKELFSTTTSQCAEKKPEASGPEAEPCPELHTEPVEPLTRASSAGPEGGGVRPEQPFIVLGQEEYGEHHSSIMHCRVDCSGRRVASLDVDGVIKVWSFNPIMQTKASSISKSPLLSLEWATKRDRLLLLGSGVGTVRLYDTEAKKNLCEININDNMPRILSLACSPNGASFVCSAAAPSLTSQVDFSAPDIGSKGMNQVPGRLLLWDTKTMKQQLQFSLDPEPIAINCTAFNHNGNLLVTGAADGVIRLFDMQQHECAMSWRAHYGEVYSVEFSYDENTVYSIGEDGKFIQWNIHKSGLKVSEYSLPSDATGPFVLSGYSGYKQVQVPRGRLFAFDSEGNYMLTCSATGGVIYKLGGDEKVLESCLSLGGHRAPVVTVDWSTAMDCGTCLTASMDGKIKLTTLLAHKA
UniProt Q6NSI4, whole entry: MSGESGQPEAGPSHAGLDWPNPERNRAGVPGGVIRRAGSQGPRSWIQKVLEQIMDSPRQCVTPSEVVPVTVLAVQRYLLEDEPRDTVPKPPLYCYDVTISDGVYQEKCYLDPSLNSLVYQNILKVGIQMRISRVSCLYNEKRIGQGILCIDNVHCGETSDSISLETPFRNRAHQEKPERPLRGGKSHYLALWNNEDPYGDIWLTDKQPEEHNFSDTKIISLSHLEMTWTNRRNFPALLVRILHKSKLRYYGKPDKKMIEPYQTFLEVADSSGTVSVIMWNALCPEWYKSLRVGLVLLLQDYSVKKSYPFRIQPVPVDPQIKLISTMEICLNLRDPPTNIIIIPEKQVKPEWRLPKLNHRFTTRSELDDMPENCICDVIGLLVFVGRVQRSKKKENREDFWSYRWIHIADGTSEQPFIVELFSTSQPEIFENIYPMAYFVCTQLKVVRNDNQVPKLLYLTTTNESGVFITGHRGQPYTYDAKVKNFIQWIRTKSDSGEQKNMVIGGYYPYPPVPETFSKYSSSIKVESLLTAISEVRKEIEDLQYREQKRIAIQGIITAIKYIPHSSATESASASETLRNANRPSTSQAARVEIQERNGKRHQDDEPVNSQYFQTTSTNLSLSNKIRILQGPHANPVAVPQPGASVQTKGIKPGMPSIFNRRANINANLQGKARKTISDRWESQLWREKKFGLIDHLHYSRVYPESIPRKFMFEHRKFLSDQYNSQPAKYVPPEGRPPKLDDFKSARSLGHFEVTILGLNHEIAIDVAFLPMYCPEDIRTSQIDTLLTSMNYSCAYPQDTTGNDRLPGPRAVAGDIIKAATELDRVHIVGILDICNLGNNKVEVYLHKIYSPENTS
UniProt P18085: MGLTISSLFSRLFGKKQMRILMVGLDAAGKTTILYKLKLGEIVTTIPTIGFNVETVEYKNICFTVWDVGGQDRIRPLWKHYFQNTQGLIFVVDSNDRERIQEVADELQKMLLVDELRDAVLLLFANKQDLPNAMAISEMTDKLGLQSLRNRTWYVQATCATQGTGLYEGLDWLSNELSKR
UniProt Q7Z6J8: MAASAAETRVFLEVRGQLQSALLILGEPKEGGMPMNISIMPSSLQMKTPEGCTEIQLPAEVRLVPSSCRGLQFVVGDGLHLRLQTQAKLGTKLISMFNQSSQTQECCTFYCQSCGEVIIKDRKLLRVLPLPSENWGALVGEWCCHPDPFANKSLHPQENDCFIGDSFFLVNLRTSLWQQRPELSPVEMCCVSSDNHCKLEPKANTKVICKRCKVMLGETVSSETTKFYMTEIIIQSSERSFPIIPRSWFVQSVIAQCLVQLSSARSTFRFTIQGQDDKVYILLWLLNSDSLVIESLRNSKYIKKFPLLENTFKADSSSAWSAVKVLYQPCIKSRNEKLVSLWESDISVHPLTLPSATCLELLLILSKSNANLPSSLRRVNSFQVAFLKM
UniProt Q92890: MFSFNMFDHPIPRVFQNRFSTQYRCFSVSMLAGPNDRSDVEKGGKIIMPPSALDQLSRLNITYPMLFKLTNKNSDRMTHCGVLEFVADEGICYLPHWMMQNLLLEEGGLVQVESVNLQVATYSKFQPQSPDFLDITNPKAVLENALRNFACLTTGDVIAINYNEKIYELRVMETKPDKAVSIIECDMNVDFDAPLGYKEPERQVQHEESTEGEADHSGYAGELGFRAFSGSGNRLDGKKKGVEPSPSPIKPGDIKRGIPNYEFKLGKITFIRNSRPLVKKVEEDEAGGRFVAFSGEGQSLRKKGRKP

Compound: Nc1ncnc2c1ncn2[C@@H]1O[C@H](COP(=O)(O)OP(=O)(O)NP(=O)(O)O)[C@@H](O)[C@H]1O [adenylyl imidodiphosphate]
Test: NP40-soluble protein abundance relative to vehicle (solubility fold change) (ratio); higher = more soluble protein in presence of AMP-PNP
How it was run: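 In three independent experiments, Jurkat crude lysate made by Dounce homogenisation was treated for 10 min at room temperature and then 3 min at 37 °C with eight concentrations ranging from 0.1 to 10 mM. It was then solubilised with 0.8% NP40 plus benzonase for 60 min at 4 °C and ultracentrifuged. The supernatant was TMT-labelled for LC-MS/MS, and each value is the fold change against the detergent-processed vehicle for the same replicate, using vsn-normalised intensities.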

Target | NP40-soluble protein abundance (concentration: 1mM) | NP40-soluble protein abundance (concentration: 2mM) | NP40-soluble protein abundance (concentration: 4mM) | NP40-soluble protein abundance (concentration: 6mM) | NP40-soluble protein abundance (concentration: 8mM) | NP40-soluble protein abundance (concentration: 10mM)
B5ME19 and related entries (UniProt Q99613+B5ME19) | 1.06 ± 0.066 | 1.07 ± 0.062 | 1.09 ± 0.098 | 1.15 ± 0.088 | 1.24 ± 0.12 | 1.29 ± 0.18
B4DQT1 and related entries (UniProt Q7L5Y9) | 0.98 ± 0.03 | 0.984 ± 0.052 | 0.978 ± 0.037 | 0.929 ± 0.081 | 0.928 ± 0.086 | 0.943 ± 0.11
D6RGX2 and related entries (UniProt Q9NUQ7) | 0.988 ± 0.04 | 0.951 ± 0.1 | 0.969 ± 0.055 | 0.964 ± 0.017 | 0.989 ± 0.023 | 0.946 ± 0.035
LIPT2 (UniProt A6NK58) | 0.961 ± 0.02 | 0.976 ± 0.014 | 0.958 ± 0.029 | 0.993 ± 0.027 | 0.994 ± 0.016 | 0.994 ± 0.022
E5RFJ1 and related entries (UniProt Q96MF7) | 1.01 ± 0.028 | 1.03 ± 0.06 | 1.02 ± 0.035 | 0.957 ± 0.033 | 0.989 ± 0.022 | 0.9706 ± 0.0092
UniProt C9JLW8 and related entries | 1.01 ± 0.055 | 0.988 ± 0.059 | 1.005 ± 0.01 | 0.9847 ± 0.0018 | 0.983 ± 0.037 | 0.966 ± 0.012
C9JLV4 and related entries (UniProt O14727) | 1.02 ± 0.053 | 0.939 ± 0.095 | 1.01 ± 0.017 | 1 ± 0.013 | 1.03 ± 0.02 | 0.994 ± 0.053
B1AH77 and related entries (UniProt P15153) | 1.26 ± 0.38 | 0.938 ± 0.086 | 0.972 ± 0.072 | 0.972 ± 0.064 | 0.947 ± 0.0097 | 0.917 ± 0.027
UniProt B7ZLF3 | 1.03 ± 0.097 | 1.03 ± 0.036 | 0.998 ± 0.068 | 1.01 ± 0.029 | 1.05 ± 0.055 | 1.07 ± 0.046
D6RAN4 and related entries (UniProt P32969) | 1.02 ± 0.023 | 1.01 ± 0.079 | 0.974 ± 0.077 | 0.951 ± 0.063 | 0.885 ± 0.12 | 1.012 ± 0.01
B9A018 and related entries (UniProt Q53GS9) | 0.976 ± 0.024 | 0.918 ± 0.084 | 0.976 ± 0.039 | 1.06 ± 0.021 | 1.108 ± 0.0024 | 1.07 ± 0.045
UniProt A3KMH1 and related entries | 0.93 ± 0.024 | 0.858 ± 0.098 | 0.933 ± 0.025 | 0.874 ± 0.035 | 0.879 ± 0.017 | 0.8557 ± 0.0057
B5MCH7 and related entries (UniProt Q9Y6E2) | 0.975 ± 0.045 | 0.992 ± 0.048 | 0.953 ± 0.032 | 1 ± 0.046 | 1 ± 0.046 | 0.962 ± 0.06
D6REX3 and related entries (UniProt O94979) | 0.98 ± 0.029 | 0.951 ± 0.039 | 0.967 ± 0.036 | 0.98 ± 0.015 | 0.971 ± 0.024 | 0.96 ± 0.048
E5RFU2 and related entries (UniProt P34913) | 0.991 ± 0.019 | 0.96 ± 0.062 | 0.975 ± 0.037 | 0.941 ± 0.034 | 0.939 ± 0.023 | 0.927 ± 0.029
C9JLU1 and related entries (UniProt P52434) | 0.95 ± 0.026 | 0.887 ± 0.065 | 0.937 ± 0.031 | 0.956 ± 0.062 | 0.999 ± 0.034 | 0.948 ± 0.037
D6RB01 and related entries (UniProt Q9Y6X4) | 1.07 ± 0.047 | 1.09 ± 0.023 | 1.05 ± 0.02 | 1.02 ± 0.023 | 0.994 ± 0.011 | 1.01 ± 0.038
UniProt A4D1P6 and related entries | 1.05 ± 0.027 | 1.08 ± 0.042 | 1.02 ± 0.024 | 0.995 ± 0.063 | 0.978 ± 0.025 | 1 ± 0.048
B7ZBM3 and related entries (UniProt Q8IVH2) | 0.961 ± 0.023 | 1.02 ± 0.043 | 0.9467 ± 0.0055 | 0.933 ± 0.034 | 0.929 ± 0.031 | 0.946 ± 0.027
E2QRN4 and related entries (UniProt Q5BKZ1) | 1.01 ± 0.13 | 1.06 ± 0.093 | 1.03 ± 0.13 | 1.03 ± 0.14 | 1.07 ± 0.15 | 1.12 ± 0.17
B5MCN7 and related entries (UniProt Q15788) | 0.977 ± 0.043 | 0.988 ± 0.018 | 0.994 ± 0.024 | 0.983 ± 0.032 | 0.982 ± 0.035 | 0.982 ± 0.024
B1AQ74 and related entries (UniProt Q6NSI4) | 1 ± 0.023 | 0.9725 ± 0.0079 | 0.96 ± 0.016 | 0.984 ± 0.022 | 0.9844 ± 0.0049 | 0.9572 ± 0.0048
C9JAK5 and related entries (UniProt P18085) | 0.936 ± 0.062 | 0.871 ± 0.067 | 0.969 ± 0.034 | 1.01 ± 0.12 | 1.11 ± 0.09 | 0.98 ± 0.025
D6RFW1 and related entries (UniProt Q96EQ0) | 0.9975 ± 0.0065 | 1.07 ± 0.073 | 0.998 ± 0.063 | 0.993 ± 0.02 | 0.956 ± 0.014 | 0.955 ± 0.038
D6RD24 and related entries (UniProt Q7Z6J8) | 0.984 ± 0.033 | 1.01 ± 0.01 | 1 ± 0.027 | 0.993 ± 0.027 | 0.995 ± 0.021 | 0.994 ± 0.016
CNOT1 (UniProt A5YKK6) | 0.96 ± 0.018 | 0.973 ± 0.035 | 1.04 ± 0.061 | 1.06 ± 0.11 | 1.08 ± 0.15 | 1.09 ± 0.16
E2QRD4 and related entries (UniProt Q6ZRQ5) | 0.9635 ± 0.0089 | 0.994 ± 0.0094 | 1.01 ± 0.05 | 0.9939 ± 0.0036 | 1.0175 ± 0.00054 | 1.01 ± 0.011
C9J6N9 and related entries (UniProt Q92890) | 0.9726 ± 0.0078 | 0.962 ± 0.019 | 0.965 ± 0.029 | 1 ± 0.034 | 1.02 ± 0.041 | 1 ± 0.019
UniProt A2RRP1 and related entries | 0.951 ± 0.05 | 0.867 ± 0.081 | 0.943 ± 0.043 | 0.91 ± 0.02 | 0.918 ± 0.051 | 0.887 ± 0.045
C9J2V2 and related entries (UniProt Q9Y6K9) | 1.01 ± 0.032 | 1.1 ± 0.037 | 1.03 ± 0.035 | 0.989 ± 0.032 | 0.989 ± 0.07 | 0.99 ± 0.031

A portion taken from the entries so far, for reference:
Target | NP40-soluble protein abundance (concentration: 1mM) | NP40-soluble protein abundance (concentration: 2mM) | NP40-soluble protein abundance (concentration: 4mM) | NP40-soluble protein abundance (concentration: 6mM) | NP40-soluble protein abundance (concentration: 8mM) | NP40-soluble protein abundance (concentration: 10mM)
C9JLU1 and related entries (UniProt P52434) | 0.95 ± 0.026 | 0.887 ± 0.065 | 0.937 ± 0.031 | 0.956 ± 0.062 | 0.999 ± 0.034 | 0.948 ± 0.037
D6RB01 and related entries (UniProt Q9Y6X4) | 1.07 ± 0.047 | 1.09 ± 0.023 | 1.05 ± 0.02 | 1.02 ± 0.023 | 0.994 ± 0.011 | 1.01 ± 0.038
UniProt A4D1P6 and related entries | 1.05 ± 0.027 | 1.08 ± 0.042 | 1.02 ± 0.024 | 0.995 ± 0.063 | 0.978 ± 0.025 | 1 ± 0.048
B7ZBM3 and related entries (UniProt Q8IVH2) | 0.961 ± 0.023 | 1.02 ± 0.043 | 0.9467 ± 0.0055 | 0.933 ± 0.034 | 0.929 ± 0.031 | 0.946 ± 0.027
E2QRN4 and related entries (UniProt Q5BKZ1) | 1.01 ± 0.13 | 1.06 ± 0.093 | 1.03 ± 0.13 | 1.03 ± 0.14 | 1.07 ± 0.15 | 1.12 ± 0.17
B5MCN7 and related entries (UniProt Q15788) | 0.977 ± 0.043 | 0.988 ± 0.018 | 0.994 ± 0.024 | 0.983 ± 0.032 | 0.982 ± 0.035 | 0.982 ± 0.024
B1AQ74 and related entries (UniProt Q6NSI4) | 1 ± 0.023 | 0.9725 ± 0.0079 | 0.96 ± 0.016 | 0.984 ± 0.022 | 0.9844 ± 0.0049 | 0.9572 ± 0.0048
